The source of these data is US20240252686A1 (SKYLINE THERAPEUTICS, published 2024).

Chains of the proteins cited; added tags and fusions are not shown. Lines headed by an entry give the natural chain unless they say otherwise; changes in a name come on top. A line that says so, or that is headed by a name, gives the form on record, which may keep a tag or linker.
VEGFA-165 (R&D systems 293-VE/CF) (P15692-4, form named): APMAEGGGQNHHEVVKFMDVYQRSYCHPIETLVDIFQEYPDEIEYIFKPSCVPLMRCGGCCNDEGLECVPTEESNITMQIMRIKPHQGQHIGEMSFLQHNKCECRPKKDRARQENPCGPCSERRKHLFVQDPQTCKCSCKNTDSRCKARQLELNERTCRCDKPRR

The experiment deals with T1, VEGFA-165 (R&D systems 293-VE/CF) (human, UniProt P15692-4 27-191).
T1 construct: Coated on ELISA plates or added in solution to reporter cells; also called human VEGF; human VEGFA
In words: ELISA, VEGFA-165 coated, supernatant, anti-HA detection. Here is the method:
After removing the blocker, the primary antibody (rabbit anti-HA, Thermo, PA1-985) was diluted (1:5000) with the blocking buffer (StartingBlock™ T20 (TBS) Blocking Buffer, Catalog number: 37543 of Thermo Fisher Scientific), and added to ELISA plate (50 μl/well), followed by the incubation at RT for 1h with 250 rpm gentle shaking. After washing with 1×TBST buffer for 3 times, the secondary antibody (Goat anti-rabbit-HRP, Invitrogen, 3146) was diluted (1:5000) with the blocking buffer, and added to the ELISA plate (50 μl/well), followed by the incubation at RT for 1h with gentle shaking. After washing the ELISA plate with 1×TBST for 3 times, the TMB substrate (Thermo Scientific, REF34028) was added the plate (50 μl/well); after the incubation at RT for 5-10 min, 2M H₂SO₄ was added to stop the TMB reaction. OD450 and OD525 of the ELISA plate were detected.
On the technique in general: In an ELISA, binding on a coated surface is turned into a signal by an enzyme label.

Results are given in words; binding and its absence hold for the method and conditions named. Some entries that bind do so weakly or less than the wild type. Tags and fused reporters may be left off the sequences shown.

B1: bi-valent Nb24, product expressed by pGCB108-ITR130-AMDF1Nb24-5-(G4S)4-Nb24-5-HA (VHH)
chain: EVQLQESGGGLVQPGGSLRLSCTASGFTFDDPDVGWFRQAPGNECELVSTISKDGSTYYTDSVKGRFTISRDYAKNTVYLQMNSLRAEDTAVYYCAADSNPIAPIRTCLGWYNYWGQGTLVTVSSGGGGSGGGGSGGGGSGGGGSEVQLQESGGGLVQPGGSLRLSCTASGFTFDDPDVGWFRQAPGNECELVSTISKDGSTYYTDSVKGRFTISRDYAKNTVYLQMNSLRAEDTAVYYCAADSNPIAPIRTCLGWYNYWGQGTLVTVSSYPYDVPDYA
notes: Two copies of Nb24 in a single polypeptide; supernatant of transfected Expi293 cells; also called 24-5-G4S4-24-5
B1: the binding result is given as “binds”.
